The record followed here is doi:10.1101/774158.

The chains behind the UniProt entries cited, without tags or fusion partners. Residues count along the entry.
UniProt P46099, whole entry E321K: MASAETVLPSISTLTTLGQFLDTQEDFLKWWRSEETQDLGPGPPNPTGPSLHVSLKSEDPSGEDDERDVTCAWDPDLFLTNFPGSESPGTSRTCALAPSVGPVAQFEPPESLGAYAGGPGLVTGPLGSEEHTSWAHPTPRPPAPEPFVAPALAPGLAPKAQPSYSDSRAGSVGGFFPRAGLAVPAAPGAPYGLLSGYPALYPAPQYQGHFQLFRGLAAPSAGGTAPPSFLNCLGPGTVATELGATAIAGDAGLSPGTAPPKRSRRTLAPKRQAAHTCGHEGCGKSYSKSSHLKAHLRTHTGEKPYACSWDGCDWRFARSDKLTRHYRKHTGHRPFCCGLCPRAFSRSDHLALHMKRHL
UniProt P46099, 275-358 E321K: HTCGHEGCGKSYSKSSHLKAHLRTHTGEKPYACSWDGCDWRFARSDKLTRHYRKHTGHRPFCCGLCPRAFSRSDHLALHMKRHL

For at least one entry, the source does not settle the construct or the ends of the probe. For part of these data: At least one result comes from cells or an extract, where the contact may be indirect. For part of these data: At least one verdict rests on a figure or table, not on a statement of the authors.

The target in data set [1] is CDA-KLF1 E321K (mouse) (UniProt P46099). Kind of data set: EMSA. The conditions noted are these: protein in a lysate after overexpression. On the technique in general: In EMSA bound probe runs differently from free probe, usually more slowly.
Data set [2] deals with CDA-ZnF-KLF1 E321K (mouse) (UniProt P46099). As to the kind of experiment: EMSA.
The target in data set [3] is CDA-KLF1 E321K (mouse) (UniProt P46099). Kind of data set: competition with a labelled probe. The following applies: cold 100x vs E2F2-1 and 9xG probes; protein in a lysate after overexpression.

Regarding “AGCTATTGGGGGAGGCC / AGCTGGCCTCCCCCAAT [CDA-AGG]”, the binding result (with CDA-KLF1 E321K (mouse) [1]; in data set [2]) was “binds” throughout.

For the sequence “AGCTGATGGGGGTGGGC / AGCTGCCCACCCCCATC [E2F2-1]”, the binding result with CDA-KLF1 E321K (mouse) [3] and in the data set with CDA-KLF1 E321K (mouse) [1] was “binds” each time.

In the case of “AGCTATTGGGGGCGTCC / AGCTGGACGCCCCCAAT [CDA-CGT]”, the binding result (in the data set with CDA-KLF1 E321K (mouse) [1]; in data set [2]) was “binds” throughout.

Take “AGCTATTGGGGGCATCC / AGCTGGATGCCCCCAAT [CDA-CAT]”: the binding result (with CDA-KLF1 E321K (mouse) [1]; in data set [2]) was “binds” in each case.

“AGCTATTGGGGGTCACC / AGCTGGTGACCCCCAAT [CDA-TCA]”: the binding result (in the data set with CDA-KLF1 E321K (mouse) [1]; in data set [2]) was “binds” throughout.

As to “AGCTGCGGGGGGGTGCC / AGCTGGCACCCCCCCGC [CDA-GTG]”, the binding result (with CDA-KLF1 E321K (mouse) [1]; in data set [2]) was “binds” in each case.

Regarding “AGCTAAGGGGGGGGGCA / AGCTTGCCCCCCCCCTT [9xG (CDA-GGG)]”, the binding result with CDA-KLF1 E321K (mouse) [3] and with CDA-KLF1 E321K (mouse) [1] was “binds” in each case.

With “AGCTATGGGGGGGCGCC / AGCTGGCGCCCCCCCAT [CDA-GCG]”, the binding result (with CDA-KLF1 E321K (mouse) [1]; in data set [2]) was “binds” throughout.

In the case of “AGCTATTGGGGGTAACC / AGCTGGTTACCCCCAAT [CDA-TAA]”, the binding result (with CDA-KLF1 E321K (mouse) [1]; in data set [2]) was “binds” throughout.
